No constants are given. Whether binding was seen depends on the method and setting. For some of these results: Binding seen in cells or lysates may run through a third protein. Some results given as binding are weak or reduced against the parent protein; the word gives no strength.
Key:
[1] = molecular target: Bcl2-associated anthogene 6 (BAG6), endogenous in HEK293 cells (human (endogenous in HEK293)) (UniProt P46379); test: co-IP; endogenous proteins in HEK293 cell lysates, cells untreated or treated with 1 µM doxorubicin (1 h or the indicated time); precipitated with anti-BAG6, anti-p53 or anti-CBP/p300 antibodies and Protein A magnetic beads; immunoblot
[2] = molecular target: p53, endogenous in HEK293 cells (human (endogenous in HEK293)) (UniProt P04637); test: as above
[3] = molecular target: TSG101, yeast two-hybrid fusion (UniProt Q99816); test: two-hybrid; pGADT7 and pGBT9 vectors in yeast lines Y2H Gold and Y187, mated; growth on DDO and QDO media
[4] = molecular target: BAG6, in vitro translated (UniProt P46379); test: co-IP; in vitro translated BAG6 and p53 mixed and incubated for 1 h at 25°, then precipitated with anti-BAG6 or anti-p53 antibodies; immunoblot

By UniProt entry, the sequences of proteins in these tests, tags left out.
UniProt P46379: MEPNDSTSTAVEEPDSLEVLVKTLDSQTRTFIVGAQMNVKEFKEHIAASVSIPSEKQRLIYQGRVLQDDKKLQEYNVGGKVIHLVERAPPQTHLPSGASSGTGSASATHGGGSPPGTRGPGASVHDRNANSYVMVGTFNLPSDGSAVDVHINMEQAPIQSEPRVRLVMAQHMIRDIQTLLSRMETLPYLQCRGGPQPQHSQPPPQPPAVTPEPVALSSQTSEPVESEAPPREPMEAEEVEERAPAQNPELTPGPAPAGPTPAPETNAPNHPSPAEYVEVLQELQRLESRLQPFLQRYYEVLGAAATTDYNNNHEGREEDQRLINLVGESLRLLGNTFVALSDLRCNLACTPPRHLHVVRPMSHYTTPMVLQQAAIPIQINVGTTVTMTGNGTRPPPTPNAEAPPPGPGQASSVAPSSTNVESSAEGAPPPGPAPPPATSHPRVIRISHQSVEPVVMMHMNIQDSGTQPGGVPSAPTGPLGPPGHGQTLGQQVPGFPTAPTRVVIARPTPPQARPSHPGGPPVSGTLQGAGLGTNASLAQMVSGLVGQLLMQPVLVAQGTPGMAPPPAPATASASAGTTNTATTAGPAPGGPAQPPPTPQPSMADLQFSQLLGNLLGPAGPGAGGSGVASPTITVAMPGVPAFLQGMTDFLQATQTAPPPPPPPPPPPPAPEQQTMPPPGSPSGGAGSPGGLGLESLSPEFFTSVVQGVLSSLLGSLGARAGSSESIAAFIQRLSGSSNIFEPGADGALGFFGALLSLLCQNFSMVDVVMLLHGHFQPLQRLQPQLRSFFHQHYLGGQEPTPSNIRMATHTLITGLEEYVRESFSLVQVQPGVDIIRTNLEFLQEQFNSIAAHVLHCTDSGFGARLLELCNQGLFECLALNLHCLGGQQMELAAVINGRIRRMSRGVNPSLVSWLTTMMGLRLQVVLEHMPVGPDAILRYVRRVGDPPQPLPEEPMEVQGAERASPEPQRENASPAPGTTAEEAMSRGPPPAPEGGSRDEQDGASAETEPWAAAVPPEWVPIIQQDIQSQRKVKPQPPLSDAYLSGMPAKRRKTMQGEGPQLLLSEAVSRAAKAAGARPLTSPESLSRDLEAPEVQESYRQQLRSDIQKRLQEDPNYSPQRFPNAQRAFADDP
UniProt Q99816: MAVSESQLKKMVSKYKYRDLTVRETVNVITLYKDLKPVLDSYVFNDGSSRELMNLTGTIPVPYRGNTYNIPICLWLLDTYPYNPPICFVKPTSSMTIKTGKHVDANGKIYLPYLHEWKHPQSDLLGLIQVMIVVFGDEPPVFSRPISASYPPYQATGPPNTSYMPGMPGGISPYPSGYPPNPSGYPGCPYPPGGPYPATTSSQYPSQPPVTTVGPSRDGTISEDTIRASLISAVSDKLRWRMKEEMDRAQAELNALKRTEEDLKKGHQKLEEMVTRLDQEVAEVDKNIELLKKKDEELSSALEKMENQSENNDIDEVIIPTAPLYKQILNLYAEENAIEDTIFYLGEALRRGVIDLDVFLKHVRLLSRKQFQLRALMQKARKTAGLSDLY
UniProt Q8WUM4: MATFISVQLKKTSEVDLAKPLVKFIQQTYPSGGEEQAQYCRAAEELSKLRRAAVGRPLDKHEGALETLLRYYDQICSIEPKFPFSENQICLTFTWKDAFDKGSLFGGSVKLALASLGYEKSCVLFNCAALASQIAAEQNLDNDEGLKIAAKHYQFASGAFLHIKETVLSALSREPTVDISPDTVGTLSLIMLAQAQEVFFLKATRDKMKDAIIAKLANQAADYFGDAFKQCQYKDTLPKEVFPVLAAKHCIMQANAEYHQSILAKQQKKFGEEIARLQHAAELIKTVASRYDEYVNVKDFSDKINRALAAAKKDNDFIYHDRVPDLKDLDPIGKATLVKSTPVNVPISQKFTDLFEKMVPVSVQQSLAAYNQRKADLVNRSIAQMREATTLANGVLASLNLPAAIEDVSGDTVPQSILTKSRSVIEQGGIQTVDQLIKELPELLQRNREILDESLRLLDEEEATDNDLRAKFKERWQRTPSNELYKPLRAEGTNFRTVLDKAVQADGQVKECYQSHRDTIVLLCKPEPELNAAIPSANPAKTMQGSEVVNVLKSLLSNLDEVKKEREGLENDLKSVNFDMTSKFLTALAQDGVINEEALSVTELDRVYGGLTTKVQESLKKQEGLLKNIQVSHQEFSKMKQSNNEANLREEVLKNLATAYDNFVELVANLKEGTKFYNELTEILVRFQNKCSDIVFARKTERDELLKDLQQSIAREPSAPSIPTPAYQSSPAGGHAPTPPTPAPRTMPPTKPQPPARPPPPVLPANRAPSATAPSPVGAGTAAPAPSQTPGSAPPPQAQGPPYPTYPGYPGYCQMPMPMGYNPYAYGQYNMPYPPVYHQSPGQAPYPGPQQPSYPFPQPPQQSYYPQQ
UniProt O14964: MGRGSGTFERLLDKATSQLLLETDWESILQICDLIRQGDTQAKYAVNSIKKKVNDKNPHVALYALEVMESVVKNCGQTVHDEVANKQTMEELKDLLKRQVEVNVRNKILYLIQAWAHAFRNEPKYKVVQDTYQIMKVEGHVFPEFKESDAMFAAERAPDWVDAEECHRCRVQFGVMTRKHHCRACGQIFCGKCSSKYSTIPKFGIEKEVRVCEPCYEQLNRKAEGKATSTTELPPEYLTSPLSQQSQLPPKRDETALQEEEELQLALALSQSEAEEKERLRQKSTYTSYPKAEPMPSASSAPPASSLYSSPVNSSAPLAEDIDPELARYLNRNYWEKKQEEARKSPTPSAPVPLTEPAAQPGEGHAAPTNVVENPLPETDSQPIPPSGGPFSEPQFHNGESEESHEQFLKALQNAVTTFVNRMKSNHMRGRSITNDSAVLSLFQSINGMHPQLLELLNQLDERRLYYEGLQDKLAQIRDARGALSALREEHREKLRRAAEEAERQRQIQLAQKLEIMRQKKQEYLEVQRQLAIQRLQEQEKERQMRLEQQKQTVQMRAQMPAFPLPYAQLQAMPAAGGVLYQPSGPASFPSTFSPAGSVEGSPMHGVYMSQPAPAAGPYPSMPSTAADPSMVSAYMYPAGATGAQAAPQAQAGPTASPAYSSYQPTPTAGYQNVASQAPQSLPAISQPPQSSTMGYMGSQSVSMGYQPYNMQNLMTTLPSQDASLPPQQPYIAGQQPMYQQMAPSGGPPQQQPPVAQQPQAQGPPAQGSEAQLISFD

Substance	binding [1]	also measured
p53, endogenous in HEK293 cells (from UniProt P04637 1-393)	binds	
Bcl2-associated anthogene 6 (BAG6), endogenous in HEK293 cells (from UniProt P46379 1-1132)		binding [2]: binds
ALIX, endogenous ESCRT protein in HEK293 cells (from UniProt Q8WUM4 1-868)	binds	
BAG6, yeast two-hybrid fusion (from UniProt P46379 1-1132)		binding [3]: binds
HRS, endogenous ESCRT protein in HEK293 cells (from UniProt O14964 1-777)	binds	
TSG101, endogenous ESCRT protein in HEK293 cells (from UniProt Q99816 1-390)	binds	
p53, in vitro translated (from UniProt P04637 1-393)		binding [4]: binds

Source: article PMC6735508
